# These are yes or no findings as the source states them, for the method shown. In cells and extracts the contact can be indirect. For some of these results: Binding calls can cover weak binding; strength is not graded here.
# Columns and labels:
# Experiment in all cases: pull-down; TNT-made KSR1 incubated with glutathione-Sepharose beads coated with the GST protein for 3 h at 4 °C in Buffer A (150 mM NaCl, 50 mM Tris-HCl, pH 7.4, 1% Triton X-100); five washes; Western blot with anti-KSR1 and anti-GST; only the target purified
# [1] = molecular target: GST-tagged YAP fragment N (amino acids 2-227)
# [2] = molecular target: GST-tagged YAP, full-length (F)
# [3] = molecular target: GST-tagged YAP fragment M (aa 115-341)
# [4] = molecular target: GST-tagged YAP fragment C (aa 228-454)
binder,measurement,setting,value
"Kinase Suppressor of Ras 1 (KSR1), produced by in vitro transcription and translation (TNT) (protein, UniProt Q8IVT5 1-923) MDRAALRAAAMGEKKEGGGGGDAAAAEGGAGAAASRALQQCGQLQKLIDISIGSLRGLRTKCAVSNDLTQQEIRTLEAKLVRYICKQRQCKLSVAPGERTPELNSYPRFSDWLYTFNVRPEVVQEIPRDLTLDALLEMNEAKVKETLRRCGASGDECGRLQYALTCLRKVTGLGGEHKEDSSWSSLDARRESGSGPSTDTLSAASLPWPPGSSQLGRAGNSAQGPRSISVSALPASDSPTPSFSEGLSDTCIPLHASGRLTPRALHSFITPPTTPQLRRHTKLKPPRTPPPPSRKVFQLLPSFPTLTRSKSHESQLGNRIDDVSSMRFDLSHGSPQMVRRDIGLSVTHRFSTKSWLSQVCHVCQKSMIFGVKCKHCRLKCHNKCTKEAPACRISFLPLTRLRRTESVPSDINNPVDRAAEPHFGTLPKALTKKEHPPAMNHLDSSSNPSSTTSSTPSSPAPFPTSSNPSSATTPPNPSPGQRDSRFNFPAAYFIHHRQQFIFPVPSAGHCWKCLLIAESLKENAFNISAFAHAAPLPEAADGTRLDDQPKADVLEAHEAEAEEPEAGKSEAEDDEDEVDDLPSSRRPWRGPISRKASQTSVYLQEWDIPFEQVELGEPIGQGRWGRVHRGRWHGEVAIRLLEMDGHNQDHLKLFKKEVMNYRQTRHENVVLFMGACMNPPHLAIITSFCKGRTLHSFVRDPKTSLDINKTRQIAQEIIKGMGYLHAKGIVHKDLKSKNVFYDNGKVVITDFGLFGISGVVREGRRENQLKLSHDWLCYLAPEIVREMTPGKDEDQLPFSKAADVYAFGTVWYELQARDWPLKNQAAEASIWQIGSGEGMKRVLTSVSLGKEVSEILSACWAFDLQERPSFSLLMDMLEKLPKLNRRLSHPGHFWKSADINSSKVVPRFERFGLGVLESSNPKM",binding,[1],binds
same,binding,[2],binds
same,binding,[3],no binding
same,binding,[4],no binding

# Source: PMC12669712
